# Test results: patent publication US20230172204A1 (BASF SE, priority 2020, published 2023)
# “And” between values parts separate entries of the source, which are not always exact repeats. Identical values can stand only once. The name of at least one read-out is uncertain.
# Columns and labels:
# [1] = test system: Alternaria solani (F129L); assay: Micro titer plate test against Alternaria solani causing early blight (ALTESO F129L); type: cell-based; details: 0.016 ppm
# [2] = test system: Phakopsora pachyrhizi (F129L); assay: Protective control of soybean rust on soybeans (PHAKPA P6); type: in vivo; details: % diseased leaf area
# [3] = test system: Phakopsora pachyrhizi (F129L); assay: Protective control of soybean rust on soybeans (PHAKPA P2); type: in vivo; details: % diseased leaf area
Compound,PHAKPA (F129L) Disease level (%) P6 at 16 ppm [2],other results
CNC(=O)/C(=N/OC)c1cccc(C)c1CO/N=C(\C)c1cccc(C(F)(F)F)c1 [Ex. 8],–,Fungal growth (%) ALTESO F129L [1]: 52%
CO/N=C(/C(=O)OC)c1cccc(C)c1CO/N=C(\C)c1cccc(C(F)(F)F)c1 [Ex. 9],4% and 1%,–
CO/N=C(/C(=O)OC)c1cccc(C)c1CO/N=C(\C)c1cccc(C)c1 [Ex. 76],0% and 4%,–
CO/N=C(/C(=O)OC)c1cccc(C)c1CO/N=C(\C)c1cccc(Cl)c1 [Ex. 153],1% and 5%,–
CNC(=O)/C(=N/OC)c1cccc(C)c1CO/N=C(\C)c1cccc(Cl)c1 [Ex. 157],–,PHAKPA (F129L) Disease level (%) P2 at 4 ppm [3]: 0% and 1%
